According to US20190062422A1:
Numbering of substitutions follows the chain as printed. No constants are given. Whether binding was seen depends on the method and setting.

B1: MOR12740 (antibody, V domains shown)
VH: QVQLVQSGAEVKKPGSSVKVSCKASGGTFSIYAISWVRQAPGQGLEWMGGIIPILGIANYAQKFQGRVTITADESTSTAYMELSSLRSEDTAVYYCARDATHSYYHDYWGQGTLVTVSS
VL: DIALTQPASVSGSPGQSITISCTGTSSDVGSYETVSWYQQHPGKAPKVMIYEVSDRPSGVSNRFSGSKSGNTASLTISGLQAEDEADYYCGSFAHWGSWVFGGGTKLTVLG
B2: MOR12741 (antibody, V domains shown)
VH: QVQLVQSGAEVKKPGSSVKVSCKASGGTFSSYAISWVRQAPGQGLEWMGMIMPEVGMADYAQKFQGRVTITADESTSTAYMELSSLRSEDTAVYYCARDFIAVGSLEIWHYYYGLDVWGQGTLVTVSS
VL: DIELTQPPSVSVSPGQTASITCSGDNIGEHYASWYQQKPGQAPVLVISYDNERPSGIPERFSGSNSGNTATLTISGTQAEDEADYYCQSWTSQKPDYVFGGGTKLTVLG
B3: MOR12743 (antibody, V domains shown)
VH: QVQLVQSGAEVKKPGASVKVSCKASGYTFTSNFIHWVRQAPGQGLEWMGWISPYNGDTNYAQKFQGRVTMTRDTSISTAYMELSRLRSEDTAVYYCARESVYYGSDYGYNGMDIWGQGTLVTVSS
VL: DIELTQPPSVSVSPGQTASITCSGDNLGEEYVSWYQQKPGQAPVLVIYDDTKRPSGIPERFSGSNSGNTATLTISGTQAEDEADYYCASWDLWSVEVFGGGTKLTVLG
B4: MOR12744 (antibody, V domains shown)
VH: B3 VH
VL: B3 VL with D91A, L92F, W93Y, V95S, E96Q
B5: MOR12745 (antibody, V domains shown)
VH: B3 VH
VL: B3 VL with A88S, S89A, D91A, L92T, E96A
B6: MOR12746 (antibody, V domains shown)
VH: B3 VH
VL: B3 VL with A88S, D91T, L92H, W93F, V95N, E96I
B7: MOR12751 (antibody, V domains shown)
VH: QVQLQQSGPGLVKPSQTLSLTCAISGDSVSSNSAAWNWIRQSPSRGLEWLGVIYYRSKWYINYADSVKSRITINPDTSKNQFSLQLNSVTPEDTAVYYCAREGIVGGWFAYWGQGTLVTVSS
VL: DIELTQPPSVSVSPGQTASITCSGDKLGSKIAHWYQQKPGQAPVLVIYDDNERPSGIPERFSGSNSGNTATLTISGTQAEDEADYYCQSWDYLSWSVVFGGGTKLTVL
B8: MOR12754 (antibody, V domains shown)
VH: EVQLLESGGGLVQPGGSLRLSCAASGFTFSDYAMTWVRQAPGKGLEWVSVISYDGSLTYYADSVKGRFTISRDNSKNTLYLQMNSLRAEDTAVYYCARDPGVWWLSYLDYWGQGTLVTVSS
VL: DIQMTQSPSSLSASVGDRVTITCRASQDIISYLAWYQQKPGKAPKLLIYGASNLQGGVPSRFSGSGSGTDFTLTISSLQPEDFAVYYCQQYMIAPPNTFGQGTKVEIKR
B9: MOR12759 (antibody, V domains shown)
VH: EVQLVQSGAEVKKPGESLKISCKGSGYSFNNYWIAWVRQMPGKGLEWMGFIYPSNSATQYSPSFQGQVTISADKSISTAYLQWSSLKASDTAMYYCARDNEYSDSYFDVWGQGTLVTVSS
VL: DIVLTQSPATLSLSPGERATLSCRASQIVSSYLAWYQQKPGQAPRLLIYDASSRATGIPARFSGSGSGTDFTLTISSLEPEDFAVYYCQQSVNFPTTFGQGTKVEIKR
B10: MOR12761 (antibody, V domains shown)
VH: B9 VH
VL: B9 VL with V85T, V92N, N93G, F94W, P95L, T96P
B11: MOR12762 (antibody, V domains shown)
VH: B9 VH
VL: B9 VL with V92E, N93Q, F94V
B12: MOR12742 (antibody, V domains shown)
VH: QVQLVQSGAEVKKPGSSVKVSCKASGGTFSSYGISWVRQAPGQGLEWMGRIIPIFGTAYYAQKFQGRVTITADESTSTAYMELSSLRSEDTAVYYCARDMRYHDYWPYYYGSDQFDVWGQGTLVTVSS
VL: DIVLTQPPSVSGAPGQRVTISCSGSSSNIGSDIVSWYQQLPGTAPKLLIYYNNLRPSGVPDRFSGSKSGTSASLAITGLQAEDEADYYCQSWDWASLAMVFGGGTKLTVLG
B13: MOR12753 (antibody, V domains shown)
VH: QVQLQQSGPGLVKPSQTLSLTCAISGDSVSSSSAAWNWIRQSPSRGLEWLGRIEYRSKWYNDYAVSVKSRITINPDTSKNQFSLQLNSVTPEDTAVYYCAREMYYYSGYGVFDVWGQGTLVTVSS
VL: B3 VL with N26A, E29G, S33H, T51D, A88S, W90F, L92T, S94T, V95S, E96Y
B14: MOR12755 (antibody, V domains shown)
VH: QVQLQQSGPGLVKPSQTLSLTCAISGDSVSSNSAAWNWIRQSPSRGLEWLGKTYYRSTWSNDYAESVKSRITINPDTSKNQFSLQLNSVTPEDTAVYYCAREMDSLTRSASSIAFDYWGQGTLVTVSS
VL: DIELTQPPSVSVSPGQTASITCSGDNLREHYVHWYQQKPGQAPVLVIYDDTERPSGIPERFSGSNSGNTATLTISGTQAEDEADYYCATRDWSNVVFGGGTKLTVLG
B15: MOR12756 (antibody, V domains shown)
VH: QVQLQQSGPGLVKPSQTLSLTCAISGDSVSDNSVAWNWIRQSPSRGLEWLGRIYYRSKWYNDYAVSVKSRITINPDTSKNQFSLQLNSVTPEDTAVYYCAREVLLFPARSYGTGMDVWGQGTLVTVSS
VL: DIELTQPPSVSVSPGQTASITCSGDNLPSKYVHWYQQKPGQAPVLVIYDDNERPSGIPERFSGSNSGNTATLTISGTQAEDEADYYCGVADMPRQMKVFGGGTKLTVLG
B16: MOR12757 (antibody, V domains shown)
VH: EVQLLESGGGLVQPGGSLRLSCAASGFTFSSYAMSWVRQAPGKGLEWVSFISSGGSETFYADSVKGRFTISRDNSKNTLYLQMNSLRAEDTAVYYCARVSYIYYYSWVLFDVWGQGTLVTVSS
VL: DIQMTQSPSSLSASVGDRVTITCRASQGIGTALNWYQQKPGKAPKLLIYDVSSLQSGVPSRFSGSGSGTDFTLTISSLQPEDFATYYCQQGLFLPFTFGQGTKVEIKR
B17: MOR12758 (antibody, V domains shown)
VH: EVQLVQSGAEVKKPGESLKISCKGSGYSFTDYWISWVRQMPGKGLEWMGAIDPTDSYTRYSPSFQGQVTISADKSISTAYLQWSSLKASDTAMYYCARWYTSHPYYEGRYPMDVWGQGTLVTVSS
VL: DIALTQPASVSGSPGQSITISCTGTSSDVGHYNYVSWYQQHPGKAPKLMIYGVTKRPSGVSNRFSGSKSGNTASLTISGLQAEDEADYYCASADEWPTLHVFGGGTKLTVLG

The binders below were run against lysozyme (assay: ELISA, purified chimeric human/mouse IgG2a on lysozyme (negative control antigen)).

binding, no binding:
B1, B2, B3, B4, B5, B6, B7, B8, B9, B10, B11

The binders below were run against lysozyme (assay: ELISA, purified chimeric IgG2a).

binding, no binding:
B1, B2, B3, B4, B5, B6, B7, B8, B9, B10, B11, B12, B13, B14, B15, B16, B17
